Measured values: PubChem BioAssay AID332 (DTP/NCI, 2004)
The list does not hold the whole screen: it gathers tests that were run many times, whatever their T/C, doses with no T/C, and many T/C values between a quarter and a half above the control. Further doses and runs are listed elsewhere. T/C is the treated group as % of the vehicle group. Schedules are NCI's codes, read here as Q, the interval in days (D) or hours (H), X, the number of doses. Some T/C values are followed by the survivors on the day toxicity was checked, most often the fifth; without a count, all were alive then. Some entries give survivors of the animals treated and no T/C: the source files T/C as zero there, which appears to mark a toxic dose or a test without result, not a measured value. Counts of survivors are from the toxicity check (mostly the fifth day) where no day follows; animals may have died later. Some entries were tested several times; the values are given in rising order. Numbered stars: 1 amine (or outer) side, 2 acyl side, 3 side chain; on linkers, the order of the positions; unused ones are H or OH. Bridge positions count the residues as written; N and C are the ends. Square brackets hold non-standard residues; d marks the D form. Peptide text beside a SMILES is read from it. I, II: the chains in the order shown. Actinocin(9to1) = Cc1c2oc3c(C)ccc(C(=O)[*:1])c3nc-2c(C(=O)[*:2])c(N)c1=O; aThr = C[C@H](O)[C@H](N)C(=O)O; NMeV = CN[C@H](C(=O)O)C(C)C; Sar = CNCC(=O)O

System: mice, ADJ-PC-20 plasma cell tumor sc, T/C %
Experiment: NCI In Vivo Anticancer Drug Screen. Data for tumor model ADJ-PC-20 Plasma Cell (subcutaneous) in unknown mice
Conditions: T/C endpoint: mean tumor weight, schedule: Q01DX010 (ip), higher T/C = larger tumour; for T/C: evaluated on day 21
Procedure: The antitumor activity of compounds was measured in mice bearing transplantable tumors. Survival or tumor size were measured and the results are expressed as the measurement made in the treated group (T) divided by the measurement made in the vehicle treated control group (C). The tumor model used in this assay is ADJ-PC-20 Plasma Cell (subcutaneous) in unknown mice

How did the T/C (dose: 18.7 micrograms/kg/injection, vehicle: saline) turn out when `Cc1c2oc3c(C)ccc(C(=O)N[C@@H]4C(=O)N[C@H](C(C)C)C(=O)N5CCC[C@H]5C(=O)N(C)CC(=O)N(C)[C@@H](C(C)C)C(=O)O[C@H]4C)c3nc-2c(C(=O)N[C@@H]2C(=O)N[C@H](C(C)C)C(=O)N3CCC[C@H]3C(=O)N(C)CC(=O)N(C)[C@@H](C(C)C)C(=O)O[C@H]2C)c(N)c1=O` (I: [aThr][dV]P[Sar][NMeV] / II: [aThr][dV]P[Sar][NMeV]; ester I:1-I:C, II:1-II:C; linker I:N-II:N via Actinocin(9to1)) was run?
Its T/C is 142 % of control.

And the survivor count (dose: 25.0 micrograms/kg/injection, vehicle: saline)?
The survivor count was 6 of 10.

What about the survivor count (dose: 50.0 micrograms/kg/injection, vehicle: saline) of the same molecule?
The survivor count was 0 of 10.

Which survivor count (dose: 20.0 mg/kg/injection, vehicle: carboxymethylcellulose (CMC)) does the source give for `N#[N+]c1cnc([O-])[nH]c1=O` here?
Its survivor count is 0 of 10.

And the survivor count (dose: 40.0 mg/kg/injection, vehicle: carboxymethylcellulose (CMC))?
Its survivor count is 0 of 10.

With `C[N+](C)(C)c1ncnc2nc[nH]c12` as the molecule, how does the survivor count (dose: 200.0 mg/kg/injection, vehicle: carboxymethylcellulose (CMC)) read?
Its survivor count is 0 of 10.

With `O=C(Nc1ccc(C2=NCCN2)cc1)c1ccc(C(=O)Nc2ccc(C3=NCCN3)cc2)c(Cl)c1` as the molecule, how does the survivor count (dose: 12.5 mg/kg/injection, vehicle: water) read?
Its survivor count is 5 of 10.

And the survivor count (dose: 15.0 mg/kg/injection, vehicle: water)?
Its survivor count is 6 of 10.

And the survivor count (dose: 30.0 mg/kg/injection, vehicle: water)?
The survivor count was 6 of 10.

What about the survivor count (dose: 50.0 mg/kg/injection, vehicle: water) of the same molecule?
The survivor count was 1 of 10.

What about the survivor count (dose: 60.0 mg/kg/injection, vehicle: water) of the same molecule?
The survivor count was 2 of 10.

How did the survivor count (dose: 120.0 mg/kg/injection, vehicle: carboxymethylcellulose (CMC)) turn out when `C[C@H]1C(=O)O[C@@H]2CCN3CC=C(COC(=O)[C@](C)(O)[C@@]1(C)O)[C@H]23` was run?
The survivor count was 3 of 10.

And the survivor count (dose: 240.0 mg/kg/injection, vehicle: carboxymethylcellulose (CMC))?
Its survivor count is 0 of 10.

Which results are given for `N#Cc1cn(C2OC(CO)C(O)C2O)c2ncnc(N)c12` (stereo not given)?
survivor count (dose: 0.25 mg/kg/injection, vehicle: carboxymethylcellulose (CMC)): 0 of 10; survivor count (dose: 0.5 mg/kg/injection, vehicle: carboxymethylcellulose (CMC)): 1 of 10; survivor count (dose: 1.0 mg/kg/injection, vehicle: carboxymethylcellulose (CMC)): 0 of 10

Which results are given for `O=C(Nc1ccc(C2=NCCCN2)cc1)c1ccc(C(=O)Nc2ccc(C3=NCCCN3)cc2)cc1`?
survivor count (dose: 0.4 mg/kg/injection, vehicle: water): 4 of 10; survivor count (dose: 0.8 mg/kg/injection, vehicle: water): 0 of 10 and 4 of 10; survivor count (dose: 1.6 mg/kg/injection, vehicle: water): 1 of 10 and 3 of 10; survivor count (dose: 1.62 mg/kg/injection, vehicle: saline): 4 of 10; survivor count (dose: 3.1 mg/kg/injection, vehicle: water): 0 of 10 and 2 of 10; survivor count (dose: 6.25 mg/kg/injection, vehicle: saline): 0 of 10; survivor count (dose: 12.5 mg/kg/injection, vehicle: saline): 0 of 10; survivor count (dose: 25.0 mg/kg/injection, vehicle: saline): 0 of 10

How did the survivor count (dose: 1.56 mg/kg/injection, vehicle: methylcellulose (MC)) turn out when `CS(=O)(=O)OCCCCOS(C)(=O)=O` was run?
Its survivor count is 4 of 10.

What about the T/C (dose: 3.12 mg/kg/injection, vehicle: methylcellulose (MC)) of the same molecule?
Its T/C is 138 % of control [8 of 10 alive].

And the T/C (dose: 6.25 mg/kg/injection, vehicle: methylcellulose (MC))?
Its T/C is 130 % of control.

What about the T/C (dose: 12.5 mg/kg/injection, vehicle: methylcellulose (MC)) of the same molecule?
The T/C was 143 % of control.

What about the survivor count (dose: 50.0 mg/kg/injection, vehicle: methylcellulose (MC)) of the same molecule?
The survivor count was 2 of 10.

And the survivor count (dose: 100.0 mg/kg/injection, vehicle: methylcellulose (MC))?
Its survivor count is 0 of 10.
